# Some of the results follow.
# B1: Flo1 (Saccharomyces cerevisiae), P32768 (protein)
# chain: SGATEACLPAGQRKSGMNINFYQYSLKDSSTYSNAAYMAYGYASKTKLGSVGGQTDISIDYNIPCVSSSGTFPCPQEDSYGNWGCKGMGACSNSQGIAYWSTDLFGFYTTPTNVTLEMTGYFLPPQTGSYTFKFATVDDSAILSVGGATAFNCCAQQQPPITSTNFTIDGIKPWGGSLPPNIEGTVYMYAGYYYPMKVVYSNAVSWGTLPISVTLPDGTTVSDDFEGYVYSFDDDLSQSNCTVPDPSNY
# Tests used:
# Assay in all cases: glycan array binding signal (z-score within array); higher = stronger binding
# Details in all cases: glycan notation: IUPAC condensed, linker removed
# GlcNAc(b1-3)Gal(b1-4)Glc = target: GlcNAc(b1-3)Gal(b1-4)Glc
# Summary of the method: (§1)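 The binding signal is a Z-score computed within each array and averaged over linkers. Arrays of the same protein sequence at different concentrations or buffers were also averaged together. Data originate from 3228 arrays in the Consortium for Functional Glycomics database, kept only where the protein sequence was available.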
# [1] = target: GlcNAc(b1-3)Gal(b1-4)GlcNAc
# Summary of the method: as §1
# [2] = target: GlcNAc(b1-3)Gal(b1-4)GlcNAc(b1-2)Man(a1-3)[GlcNAc(b1-3)Gal(b1-4)GlcNAc(b1-2)Man(a1-6)]Man(b1-4)GlcNAc(b1-4)GlcNAc
# Summary of the method: as §1
# [3] = target: GlcNAc(b1-3)Gal(b1-4)GlcNAc(b1-2)Man(a1-3)[GlcNAc(b1-3)Gal(b1-4)GlcNAc(b1-2)Man(a1-6)]Man(b1-4)GlcNAc(b1-4)[Fuc(a1-6)]GlcNAc
# Summary of the method: as §1
# [4] = target: GlcNAc(b1-3)Gal(b1-4)GlcNAc(b1-2)[GlcNAc(b1-3)Gal(b1-4)GlcNAc(b1-6)]Man(a1-6)[GlcNAc(b1-3)Gal(b1-4)GlcNAc(b1-2)Man(a1-3)]Man(b1-4)GlcNAc(b1-4)GlcNAc
# Summary of the method: as §1
# [5] = target: GlcNAc(b1-3)Gal(b1-4)GlcNAc(b1-3)Gal(b1-4)GlcNAc
# Summary of the method: as §1
# [6] = target: GlcNAc(b1-3)Gal(b1-4)GlcNAc(b1-3)Gal(b1-4)GlcNAc(b1-2)Man(a1-3)[GlcNAc(b1-3)Gal(b1-4)GlcNAc(b1-3)Gal(b1-4)GlcNAc(b1-2)Man(a1-6)]Man(b1-4)GlcNAc(b1-4)GlcNAc
# Summary of the method: as §1
# [7] = target: GlcNAc(b1-3)Gal(b1-4)GlcNAc(b1-3)Gal(b1-4)GlcNAc(b1-2)Man(a1-3)[GlcNAc(b1-3)Gal(b1-4)GlcNAc(b1-3)Gal(b1-4)GlcNAc(b1-2)Man(a1-6)]Man(b1-4)GlcNAc(b1-4)[Fuc(a1-6)]GlcNAc
# Summary of the method: as §1
# [8] = target: GlcNAc(b1-3)Gal(b1-4)GlcNAc(b1-3)Gal(b1-4)GlcNAc(b1-2)[GlcNAc(b1-3)Gal(b1-4)GlcNAc(b1-3)Gal(b1-4)GlcNAc(b1-6)]Man(a1-6)[GlcNAc(b1-3)Gal(b1-4)GlcNAc(b1-3)Gal(b1-4)GlcNAc(b1-2)Man(a1-3)]Man(b1-4)GlcNAc(b1-4)[Fuc(a1-6)]GlcNAc
# Summary of the method: as §1
# [9] = target: GlcNAc(b1-3)Gal(b1-4)GlcNAc(b1-3)Gal(b1-4)GlcNAc(b1-3)Gal(b1-4)GlcNAc(b1-2)Man(a1-3)[GlcNAc(b1-3)Gal(b1-4)GlcNAc(b1-3)Gal(b1-4)GlcNAc(b1-3)Gal(b1-4)GlcNAc(b1-2)Man(a1-6)]Man(b1-4)GlcNAc(b1-4)GlcNAc
# Summary of the method: as §1
# [10] = target: GlcNAc(b1-3)Gal(b1-4)GlcNAc(b1-3)Gal(b1-4)GlcNAc(b1-3)Gal(b1-4)GlcNAc(b1-2)Man(a1-3)[GlcNAc(b1-3)Gal(b1-4)GlcNAc(b1-3)Gal(b1-4)GlcNAc(b1-3)Gal(b1-4)GlcNAc(b1-2)Man(a1-6)]Man(b1-4)GlcNAc(b1-4)[Fuc(a1-6)]GlcNAc
# Summary of the method: as §1
# [11] = target: GlcNAc(b1-3)Gal(b1-4)GlcNAc(b1-3)Gal(b1-4)GlcNAc(b1-3)Gal(b1-4)GlcNAc(b1-2)[GlcNAc(b1-3)Gal(b1-4)GlcNAc(b1-3)Gal(b1-4)GlcNAc(b1-3)Gal(b1-4)GlcNAc(b1-6)]Man(a1-6)[GlcNAc(b1-3)Gal(b1-4)GlcNAc(b1-3)Gal(b1-4)GlcNAc(b1-3)Gal(b1-4)GlcNAc(b1-2)Man(a1-3)]Man(b1-4)GlcNAc(b1-4)[Fuc(a1-6)]GlcNAc
# Summary of the method: as §1
# [12] = target: GlcNAc(b1-3)Gal(b1-4)GlcNAc(b1-3)Gal(b1-4)GlcNAc(b1-3)Gal(b1-4)GlcNAc(b1-3)Gal(b1-4)GlcNAc(b1-2)Man(a1-3)[GlcNAc(b1-3)Gal(b1-4)GlcNAc(b1-3)Gal(b1-4)GlcNAc(b1-3)Gal(b1-4)GlcNAc(b1-3)Gal(b1-4)GlcNAc(b1-2)Man(a1-6)]Man(b1-4)GlcNAc(b1-4)GlcNAc
# Summary of the method: as §1
# [13] = target: GlcNAc(b1-3)Gal(b1-4)GlcNAc(b1-3)Gal(b1-4)GlcNAc(b1-3)Gal(b1-4)GlcNAc(b1-3)Gal(b1-4)GlcNAc(b1-2)Man(a1-3)[GlcNAc(b1-3)Gal(b1-4)GlcNAc(b1-3)Gal(b1-4)GlcNAc(b1-3)Gal(b1-4)GlcNAc(b1-3)Gal(b1-4)GlcNAc(b1-2)Man(a1-6)]Man(b1-4)GlcNAc(b1-4)[Fuc(a1-6)]GlcNAc
# Summary of the method: as §1
# [14] = target: GlcNAc(b1-3)Gal(b1-4)GlcNAc(b1-3)Gal(b1-4)GlcNAc(b1-3)Gal(b1-4)GlcNAc(b1-3)Gal(b1-4)GlcNAc(b1-2)[GlcNAc(b1-3)Gal(b1-4)GlcNAc(b1-3)Gal(b1-4)GlcNAc(b1-3)Gal(b1-4)GlcNAc(b1-3)Gal(b1-4)GlcNAc(b1-6)]Man(a1-6)[GlcNAc(b1-3)Gal(b1-4)GlcNAc(b1-3)Gal(b1-4)GlcNAc(b1-3)Gal(b1-4)GlcNAc(b1-3)Gal(b1-4)GlcNAc(b1-2)Man(a1-3)]Man(b1-4)GlcNAc(b1-4)[Fuc(a1-6)]GlcNAc
# Summary of the method: as §1
# [15] = target: GlcNAc(b1-3)Gal(b1-4)GlcNAc(b1-3)Gal(b1-4)GlcNAc(b1-3)GalNAc
# Summary of the method: as §1
# [16] = target: GlcNAc(b1-3)Gal(b1-4)GlcNAc(b1-3)GalNAc
# Summary of the method: as §1
# [17] = target: GlcNAc(b1-3)Gal(b1-4)GlcNAc(b1-3)[GlcNAc(b1-3)Gal(b1-4)GlcNAc(b1-3)]GalNAc
# Summary of the method: as §1
# [18] = target: GlcNAc(b1-3)Gal(b1-4)GlcNAc(b1-6)[Gal(b1-3)]GalNAc
# Summary of the method: as §1
binder,measurement,setting,value
B1,glycan array binding signal (z-score),GlcNAc(b1-3)Gal(b1-4)Glc,-0.053
same,glycan array binding signal (z-score),[1],-0.182
same,glycan array binding signal (z-score),[2],1.32
same,glycan array binding signal (z-score),[3],-0.418
same,glycan array binding signal (z-score),[4],-0.046
same,glycan array binding signal (z-score),[5],-0.437
same,glycan array binding signal (z-score),[6],0.676
same,glycan array binding signal (z-score),[7],-0.311
same,glycan array binding signal (z-score),[8],0.066
same,glycan array binding signal (z-score),[9],-0.476
same,glycan array binding signal (z-score),[10],0.226
same,glycan array binding signal (z-score),[11],0.276
same,glycan array binding signal (z-score),[12],-0.583
same,glycan array binding signal (z-score),[13],-0.202
same,glycan array binding signal (z-score),[14],-0.008
same,glycan array binding signal (z-score),[15],0.208
same,glycan array binding signal (z-score),[16],-0.643
same,glycan array binding signal (z-score),[17],-0.466
same,glycan array binding signal (z-score),[18],-0.618

# Another view of some results above:
binder	measurement	setting	value
B1	glycan array binding signal (z-score)	[4]	-0.046
same	glycan array binding signal (z-score)	[8]	0.066

# — the supplement of paper PMC8728848
